These are yes or no findings as the source states them, for the method shown. Binding seen in cells or lysates may run through a third protein. Binding can be weak; no strength is given.
Target: CD33, endogenous on freshly isolated human blood monocytes (human (endogenous in blood monocytes))
Assay: proximity ligation; Duolink on freshly isolated human monocytes, untreated or treated with C1q (20 ug/ml) for 40 min, fixed in paraformaldehyde; primary antibodies to the two receptors

B1: CD14, endogenous on human blood monocytes (receptor, UniProt P08571 20-345)
chain: TTPEPCELDDEDFRCVCNFSEPQPDWSEAFQCVSAVEVEIHAGGLNLEPFLKRVDADADPRQYADTVKALRVRRLTVGAAQVPAQLLVGALRVLAYSRLKELTLEDLKITGTMPPLPLEATGLALSSLRLRNVSWATGRSWLAELQQWLKPGLKVLSIAQAHSPAFSCEQVRAFPALTSLDLSDNPGLGERGLMAALCPHKFPAIQNLALRNTGMETPTGVCAALAAAGVQPHSLDLSHNSLRATVNPSAPRCMWSSALNSLNLSFAGLEQVPKGLPAKLRVLDLSCNRLNRAPQPDELPEVDNLTLDGNPFLVPGTALPHEGSMN
binding: binds

Reference: article PMC5412647
